Reference: the supplement of paper PMC9015667
This is one part of the list. Many values rest on one well or one pass, so single values are uncertain.

What follows are molecules tested on M238R (matched melanoma line resistant to BRAF inhibitors) (assay: reduction in cell viability relative to untreated/vehicle; higher = more growth inhibition). Conditions: 200 nM; 72 h.
In the case of `CC(C)[C@H](C(=O)Nc1ccc(C(=O)NO)cc1)c1ccccc1`, the “reduction in cell viability” value is reported as 3.12%.
In the case of `Cc1cn[nH]c1` [Fomepizole], the “reduction in cell viability” value is reported as < 0%.
With `CC(C)NCC(O)c1ccc(O)c(O)c1` (centres undefined) [Isoproterenol] the “reduction in cell viability” value was < 0%.
In the case of `Cc1ccc(NC(=O)C2(c3ccc4c(c3)OC(F)(F)O4)CC2)nc1-c1cccc(C(=O)O)c1` [Lumacaftor], the “reduction in cell viability” value is reported as < 0%.
With `CCOc1cc(N2CCC(O)CC2)ccc1Nc1ncc2c(n1)N(C)c1ccccc1C(=O)N2C` the “reduction in cell viability” value was < 0%.
With `Clc1ccc(CCC(Cn2ccnc2)Sc2c(Cl)cccc2Cl)cc1` (centres undefined) [Butoconazole nitrate] the “reduction in cell viability” value was < 0%.
In the case of `COc1ccc(C2CC(c3ccccc3)=NN2c2ccc(S(N)(=O)=O)cc2)cc1` (centres undefined), the “reduction in cell viability” value is reported as < 0%.
In the case of `O=c1[nH]nc(OCCCc2ccc(Cl)cc2)c(NCc2cccnc2)c1Br` [Parogrelil], the “reduction in cell viability” value is reported as < 0%.
In the case of `COc1cc(N2CCC(N3CCN(C)CC3)CC2)ccc1Nc1ncnc(Nc2ccccc2S(=O)(=O)C(C)C)n1`, the “reduction in cell viability” value is reported as < 0%.
For `C[C@H](NCc1ccc2c(c1)nc(NC(=O)c1ccc(-c3cn[nH]c3)s1)n2CCc1ccccc1)C(C)(C)C`, the “reduction in cell viability” value was 72.2%.
`Nc1nc(OCc2ccccc2)c2nc[nH]c2n1` [O6-Benzylguanine] was tested, and the “reduction in cell viability” value was < 0%.
With `CC1(C)OC2=C(C(=O)c3ccccc3C2=O)[C@H](NCc2ccccc2)[C@@H]1O` the “reduction in cell viability” value was < 0%.
For `CCC(=O)O[C@]1(C(=O)CO)CC[C@H]2[C@@H]3CCC4=CC(=O)CC[C@]4(C)[C@H]3CC[C@@]21C` [17 alpha-propionate], the “reduction in cell viability” value was < 0%.
With `C=CC(=O)Nc1cccc(Oc2nc(Nc3ccc(N4CCN(C)CC4)cc3OC)ncc2Cl)c1` the “reduction in cell viability” value was < 0%.
